Laboratory results as given in PMC6884526.
Substitutions are numbered along the chain they refer to. No constants are given. Whether binding was seen depends on the method and setting. Binding seen in cells or lysates may run through a third protein. For some assays here: Binding can be weak; no strength is given. Where a sequence is shown, tags or fusion partners need not be part of it.

Columns and labels:
[1] = target: T1, GFP-Snapin-S50D (UniProt P60192); experiment: co-IP; heterologous, HEK293T lysate, lysis buffer without SDS; GFP-Snapin forms precipitated with anti-GFP magnetic beads
T1 sequence: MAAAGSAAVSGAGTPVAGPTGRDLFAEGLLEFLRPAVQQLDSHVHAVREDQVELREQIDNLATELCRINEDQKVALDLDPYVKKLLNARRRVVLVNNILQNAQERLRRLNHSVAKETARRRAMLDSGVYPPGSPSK

[2] = target: T2, GFP-Snapin-S50A (UniProt P60192); experiment: as above
T2 sequence: T1 sequence with D50A

binding [1]: no binding | binding [2]: binds
Substance: dynein intermediate chain (endogenous, HEK293T) (human (endogenous in HEK293T))
